In paper PMC11102862:
These are yes or no findings as the source states them, for the method shown. In cells and extracts the contact can be indirect. Some entries that bind do so weakly or less than the wild type. Tags and fused reporters may be left off the sequences shown.

T1: 3xFLAG_TEV_SBP-tagged CD2BP2 (human) (UniProt O95400)
T1 sequence: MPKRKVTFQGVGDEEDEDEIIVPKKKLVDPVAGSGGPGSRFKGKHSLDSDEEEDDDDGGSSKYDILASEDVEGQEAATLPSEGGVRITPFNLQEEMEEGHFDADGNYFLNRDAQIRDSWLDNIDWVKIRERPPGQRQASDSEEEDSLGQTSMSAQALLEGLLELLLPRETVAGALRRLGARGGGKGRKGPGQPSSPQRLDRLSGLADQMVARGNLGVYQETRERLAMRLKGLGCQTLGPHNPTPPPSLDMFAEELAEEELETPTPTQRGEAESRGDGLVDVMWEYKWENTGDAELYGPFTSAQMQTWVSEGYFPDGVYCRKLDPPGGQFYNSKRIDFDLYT

T2: 3xFLAG_CD2BP2 (human) (UniProt O95400)
T2 sequence: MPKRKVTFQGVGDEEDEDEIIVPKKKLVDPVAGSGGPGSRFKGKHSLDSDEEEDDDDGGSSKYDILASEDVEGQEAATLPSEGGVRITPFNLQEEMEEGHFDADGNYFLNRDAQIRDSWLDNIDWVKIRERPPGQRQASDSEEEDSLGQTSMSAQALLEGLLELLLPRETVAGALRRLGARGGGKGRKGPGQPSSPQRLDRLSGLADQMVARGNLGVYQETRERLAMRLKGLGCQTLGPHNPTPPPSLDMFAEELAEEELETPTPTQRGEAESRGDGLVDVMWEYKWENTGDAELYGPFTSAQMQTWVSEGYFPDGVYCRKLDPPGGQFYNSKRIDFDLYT


How the values were obtained:
[1] = molecular target: T1, 3xFLAG_TEV_SBP-tagged CD2BP2 (human); experiment: cross-linking; BS3 XL-MS of the purified CD2BP2 complex at 3 mg/ml, 0.25 mM or 1 mM BS3, 30 min at 30 °C; complex co-purified from nuclear extract
3xFLAG_CD2BP2 (human) = molecular target: T2, 3xFLAG_CD2BP2 (human); experiment: co-IP; called a FLAG-tag pull-down: HEK293T co-expressing 3xFLAG-CD2BP2 and 3xHA-PRP6 270-941; lysate in 150 mM KCl, 20 mM K-HEPES pH 7.8, 0.1% Triton X-100; FLAG-agarose captures the bait; western blot anti-HA and anti-FLAG; single biological replicate

binding [1] | binding (3xFLAG_CD2BP2 (human)) | Binder
binds |  | PRP6 (protein, UniProt O94906 1-941) MNKKKKPFLGMPAPLGYVPGLGRGATGFTTRSDIGPARDANDPVDDRHAPPGKRTVGDQMKKNQAADDDDEDLNDTNYDEFNGYAGSLFSSGPYEKDDEEADAIYAALDKRMDERRKERREQREKEEIEKYRMERPKIQQQFSDLKRKLAEVTEEEWLSIPEVGDARNKRQRNPRYEKLTPVPDSFFAKHLQTGENHTSVDPRQTQFGGLNTPYPGGLNTPYPGGMTPGLMTPGTGELDMRKIGQARNTLMDMRLSQVSDSVSGQTVVDPKGYLTDLNSMIPTHGGDINDIKKARLLLKSVRETNPHHPPAWIASARLEEVTGKLQVARNLIMKGTEMCPKSEDVWLEAARLQPGDTAKAVVAQAVRHLPQSVRIYIRAAELETDIRAKKRVLRKALEHVPNSVRLWKAAVELEEPEDARIMLSRAVECCPTSVELWLALARLETYENARKVLNKARENIPTDRHIWITAAKLEEANGNTQMVEKIIDRAITSLRANGVEINREQWIQDAEECDRAGSVATCQAVMRAVIGIGIEEEDRKHTWMEDADSCVAHNALECARAIYAYALQVFPSKKSVWLRAAYFEKNHGTRESLEALLQRAVAHCPKAEVLWLMGAKSKWLAGDVPAARSILALAFQANPNSEEIWLAAVKLESENDEYERARRLLAKARSSAPTARVFMKSVKLEWVQDNIRAAQDLCEEALRHYEDFPKLWMMKGQIEEQKEMMEKAREAYNQGLKKCPHSTPLWLLLSRLEEKIGQLTRARAILEKSRLKNPKNPGLWLESVRLEYRAGLKNIANTLMAKALQECPNSGILWSEAIFLEARPQRRTKSVDALKKCEHDPHVLLAVAKLFWSQRKITKAREWFHRTVKIDSDLGDAWAFFYKFELQHGTEEQQEEVRKRCESAEPRHGELWCAVSKDIANWQKKIGDILRLVAGRIKNTF
 | binds | 3xHA_PRP6^270-941 (domain or fragment, UniProt O94906 270-941) PKGYLTDLNSMIPTHGGDINDIKKARLLLKSVRETNPHHPPAWIASARLEEVTGKLQVARNLIMKGTEMCPKSEDVWLEAARLQPGDTAKAVVAQAVRHLPQSVRIYIRAAELETDIRAKKRVLRKALEHVPNSVRLWKAAVELEEPEDARIMLSRAVECCPTSVELWLALARLETYENARKVLNKARENIPTDRHIWITAAKLEEANGNTQMVEKIIDRAITSLRANGVEINREQWIQDAEECDRAGSVATCQAVMRAVIGIGIEEEDRKHTWMEDADSCVAHNALECARAIYAYALQVFPSKKSVWLRAAYFEKNHGTRESLEALLQRAVAHCPKAEVLWLMGAKSKWLAGDVPAARSILALAFQANPNSEEIWLAAVKLESENDEYERARRLLAKARSSAPTARVFMKSVKLEWVQDNIRAAQDLCEEALRHYEDFPKLWMMKGQIEEQKEMMEKAREAYNQGLKKCPHSTPLWLLLSRLEEKIGQLTRARAILEKSRLKNPKNPGLWLESVRLEYRAGLKNIANTLMAKALQECPNSGILWSEAIFLEARPQRRTKSVDALKKCEHDPHVLLAVAKLFWSQRKITKAREWFHRTVKIDSDLGDAWAFFYKFELQHGTEEQQEEVRKRCESAEPRHGELWCAVSKDIANWQKKIGDILRLVAGRIKNTF
